Data on one substance can be found in PMC4928127, “Determination of GLUT1 Oligomerization Parameters using Bioluminescent Förster Resonance Energy Transfer” (Scientific Reports, 2016).

One assay concerns the target T1, GLUT1-Nluc (mouse) (UniProt P17809).
T1 sequence: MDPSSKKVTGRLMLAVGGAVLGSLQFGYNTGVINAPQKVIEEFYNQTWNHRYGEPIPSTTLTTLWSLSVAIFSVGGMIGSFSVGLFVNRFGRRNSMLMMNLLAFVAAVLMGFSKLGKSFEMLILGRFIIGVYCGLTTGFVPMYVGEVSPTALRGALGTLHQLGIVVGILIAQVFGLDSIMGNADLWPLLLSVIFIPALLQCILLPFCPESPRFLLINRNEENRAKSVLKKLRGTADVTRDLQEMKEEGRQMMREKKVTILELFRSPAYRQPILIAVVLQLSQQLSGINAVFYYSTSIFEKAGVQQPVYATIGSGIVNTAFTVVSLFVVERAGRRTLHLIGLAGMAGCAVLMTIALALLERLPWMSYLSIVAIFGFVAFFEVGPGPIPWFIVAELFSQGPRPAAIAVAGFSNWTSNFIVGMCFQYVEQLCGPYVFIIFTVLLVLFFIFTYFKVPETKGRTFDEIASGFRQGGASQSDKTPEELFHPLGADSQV
The experiment in a line: FRET or BRET; saturation BRET in live 293FT cells: fixed amount of Nluc donor fusion, increasing amounts of mCherry acceptor fusion, transient transfection; corrected BRET against acceptor:donor plasmid ratio, fit to standard binding curves. In general terms: Bioluminescence resonance energy transfer reports proximity on the nanometre scale.

For the next assay, the target named is T2, Nluc-GLUT1 (mouse, UniProt P17809 1-492).
T2 construct: facilitated glucose transporter GLUT1 (SLC2A1), mouse Glut1 open reading frame; BRET donor; also called GLUT1 fused to Nluc at the N-terminus; not shown: Nanoluciferase (Nluc), N-terminal, kept
T2 sequence (looked up): T1 sequence
The assay is described as above.

These are yes or no findings as the source states them, for the method shown. In cells and extracts the contact can be indirect. Tags and fused reporters may be left off the sequences shown.

As to CD44-mCherry, the binding entry with GLUT1-Nluc (mouse) and with Nluc-GLUT1 was “no binding” each time.
